{
  "source": "patent US11590158B2",
  "about": "“Pharmaceutical compositions of lipoic acid choline ester salts and methods of treatment using same” (Novartis AG, priority 2020, dated 2023)",
  "assay": "Solid state stability",
  "conditions": "40° C. 75% RH for 1 week",
  "note": "Some results were stated once for a whole list of compounds, not compound by compound. For at least one compound, name, drawing or mass did not settle the structure. Some compounds share one range, which may span the group rather than tell each member.",
  "data": [
    {"smiles": "C[N+](C)(C)CCOC(=O)CCCCC1CCSS1.[I-]", "note": "(stereo not shown) [LACE-I, lipoic acid choline ester iodide]", "values": [
      {"measurement": "degradation", "value": "4-7%"}
    ]}
  ]
}
